Source: article doi:10.1101/2019.12.17.878660 (bioRxiv, 2019)
Results are given in words; binding and its absence hold for the method and conditions named. Binding can be weak; no strength is given.

The chains behind the UniProt entries cited, without tags or fusion partners. Where a name states a change or a piece, a line headed by the entry shows the natural chain unless it says otherwise.
UniProt P0ABZ6: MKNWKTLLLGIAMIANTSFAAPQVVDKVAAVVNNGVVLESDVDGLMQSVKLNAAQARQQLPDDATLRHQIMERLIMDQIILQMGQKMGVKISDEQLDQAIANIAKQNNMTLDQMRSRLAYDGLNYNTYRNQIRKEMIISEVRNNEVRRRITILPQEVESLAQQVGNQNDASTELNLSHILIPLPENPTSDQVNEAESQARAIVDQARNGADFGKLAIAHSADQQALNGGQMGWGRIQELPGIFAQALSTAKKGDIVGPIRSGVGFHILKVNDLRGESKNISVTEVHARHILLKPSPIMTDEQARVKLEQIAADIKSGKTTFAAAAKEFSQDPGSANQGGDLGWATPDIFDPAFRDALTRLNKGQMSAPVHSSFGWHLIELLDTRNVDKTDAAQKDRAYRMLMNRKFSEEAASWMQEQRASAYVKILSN

Biological target: uOmpA171 (the transmembrane domain of uOmpA) (E. coli) (UniProt P0A910)
Experiment: cross-linking

““locked-closed” SurA variant (P61C/A218C) (from UniProt P0ABZ6 21-428)” was tested, and the binding was “binds weakly”.

For SurA (from UniProt P0ABZ6 21-428), the binding was “binds”.
